Measured data: PubChem BioAssay AID1508597 (Cure First, 2020)
Purpose: 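Genes whose silencing sensitises or protects ovarian cancer cells against rucaparib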 (primary screen). Cells: human ovarian carcinoma lines grown from tumours: OCI-P5x (papillary serous) and OCI-C5x (clear cell). Knock-down reagent: siRNA pool against human genes, 1.25 pmol siRNA per well. Time to read-out: 72 h or 96 h, depending on the cell culture. Conditions: rucaparib 20 µM (about IC30) or vehicle, present until read-out. Rucaparib or vehicle: Vehicle. Cell line: OCI-C5x (clear cell). Measured: 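ATP luminescence measured at 72 or 96 h according to the culture, then normalised and expressed as percent viability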. Direction: viability, normalised: higher = more viable cells remaining. Active means: 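Active when normalised viability falls below 80 percent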. Meaning of the calls: active = viability under 80%; inactive = viability 80% or more.
Shown is an unselected part of the about 2,100 reagents, in one setting of the screen. 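Calls flag viability under 80% in either arm, not effects specific to rucaparib; the reference for percent is not stated.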 Unmarked entries are inactive. A reagent listed more than once was tested more than once; the source does not tell the runs apart. Not given: the 100% reference.

gene knocked down	technical replicate	viability, normalised (%)
RPS6KA5	1	49.9 (active)
RPS6KA5	2	55.9 (active)
RPS6KA5	3	47.1 (active)
ORC1	1	51.1 (active)
ORC1	2	51.9 (active)
ORC1	3	47.4 (active)
STK38	1	95.5
STK38	2	46.3 (active)
STK38	3	57.6 (active)
FNTA	1	64.6 (active)
FNTA	2	43.9 (active)
FNTA	3	46.5 (active)
BRWD1	1	50.2 (active)
BRWD1	2	50.3 (active)
BRWD1	3	49.8 (active)
PRKY	1	117
PRKY	2	51.5 (active)
PRKY	3	42.7 (active)
NTRK1	1	35 (active)
NTRK1	1	109
NTRK1	1	59.4 (active)
NTRK1	2	24.3 (active)
NTRK1	2	45.6 (active)
NTRK1	2	71.2 (active)
NTRK1	3	63.2 (active)
NTRK1	3	51.2 (active)
NTRK1	3	33.9 (active)
MPLKIP	1	59.8 (active)
MPLKIP	2	63.7 (active)
MPLKIP	3	55.2 (active)
PI4K2B	1	45.1 (active)
PI4K2B	2	62.7 (active)
PI4K2B	3	59.5 (active)
UBR5	1	56.9 (active)
UBR5	2	62.9 (active)
UBR5	3	60.6 (active)
NME1	1	44.9 (active)
NME1	1	66 (active)
NME1	2	38.8 (active)
NME1	2	66.1 (active)
NME1	3	37.1 (active)
NME1	3	52.8 (active)
BTG2	1	61.1 (active)
BTG2	2	47 (active)
BTG2	3	53.1 (active)
PES1	1	55.9 (active)
PES1	2	44.4 (active)
PES1	3	42.2 (active)
AANAT	1	57.5 (active)
AANAT	2	41.5 (active)
AANAT	3	38.3 (active)
FOXA2	1	21.4 (active)
FOXA2	2	25.4 (active)
FOXA2	3	27.2 (active)
PFKM	1	63.6 (active)
PFKM	2	48 (active)
PFKM	3	55.5 (active)

Targets listed so far whose gene name begins with R or r (3):
gene knocked down	technical replicate	viability, normalised (%)
RPS6KA5	1	49.9 (active)
RPS6KA5	2	55.9 (active)
RPS6KA5	3	47.1 (active)
